# Measurements: PubChem BioAssay AID588497 (NMMLSC, 2011)
# Out of some 360,000 compounds screened, about 780 (0.22%) were called active. Inconclusive means that the source gave no clear call. Such entries were picked first, then a sample of the others. Rule as the data show it: active = inhibition above about 35% (passing the limit was not always enough); inconclusive = no clear call, values can overlap the other calls.
# Test system: Botulinum neurotoxin type F light chain protease (Clostridium botulinum)
# Test: BoNT/F light chain protease inhibitors, primary screen, biochemical, flow cytometry, MLPCN library (AID 588497); also: plate controls were buffer without enzyme for full effect and enzyme alone for no effect
# Conditions: Multiplex microsphere protease cleavage assay, at 10 µM, active compounds read high
row,Structure (SMILES),inhibition
1,O=C(N/N=C/c1ccncc1)c1cnccn1,inconclusive: 29.7%
2,CCOC(=O)c1[nH]c2ccccc2c1NC(=O)CN(C)C,inconclusive: -2.2%
3,CCC(Oc1cc(Cl)ccc1Cl)C(=O)NN1C(=O)C2C3CCC(C3=C(C)C)C2C1=O (stereo not given),active: 35.4%
4,O=C(c1ccco1)N1CCN(Cc2cc(=O)c(OCc3cccc(Cl)c3)co2)CC1,inconclusive: -9.6%
5,O=C(Nc1ccc(S(=O)(=O)Nc2cnc3ccccc3n2)cc1)c1ccc(F)cc1,inconclusive: 10.1%
6,CC1(C(=O)Nc2c(F)c(F)c(F)c(F)c2F)CC1(Br)Br (stereo not given),inconclusive: 30.5%
7,O=C(O)COCC(=O)Nc1ccc2c(c1)oc1ccccc12,inconclusive: 6.9%
8,Brc1ccc(-n2cnc(-c3ccccc3)c2)cc1,inactive: -12.9%
9,CN(C)c1ccc(P(=O)(OCc2ccccc2)C(O)c2ccccc2)cc1 (stereo not given),inconclusive: -11.7%
10,Cc1ccc[n+](C(C)C(=O)Nc2ccc(C)c(C)c2)c1 (stereo not given),inconclusive: 2.6%
11,CN(C(=O)c1ccc2c(c1)S(=O)(=O)N=C1CCCCCN12)c1ccccc1,inconclusive: 4.3%
12,COc1ccc(N2CC(C(=O)NCCC3=CCCCC3)CC2=O)c(OC)c1 (stereo not given),inconclusive: -15.5%
13,O=C(CN1CCOCC1)Nc1nc2ccc(Cl)cc2s1,inconclusive: 20.8%
14,Cc1ccccc1NC(=O)Cn1nnc2sc3c(c2c1=O)CC(C)(C)OC3,inconclusive: -2.3%
15,C=CCn1c(SCC(=O)NNC(=S)Nc2ccccc2)nnc1-c1ccccc1,inconclusive: -39.2%
16,Cc1cc(C)cc(NC(=O)Nc2ccc(NC(=O)c3ccccc3O)cc2)c1,inconclusive: 4.2%
17,O=C(O)/C=C/C(=O)Nc1ccc(Cl)c(C(=O)O)c1,inconclusive: -44.7%
18,Cc1nn(C(C)C)c(C)c1CN1CCCC(CCC(=O)NCc2ccccc2F)C1 (stereo not given),inconclusive: -16.3%
19,Cc1nc2ccccc2cc1C(=O)N/N=C/c1cccs1,active: 37.6%
20,COC(=O)c1ccccc1NC(=O)CSc1nnc(C(C)NC(=O)c2ccc(Cl)cc2Cl)n1C (stereo not given),inactive: -0.3%
21,O=C(CSc1nccc(-c2cccs2)n1)Nc1ccc(Cl)cc1,inconclusive: -90.6%
22,O=C(O)c1cc2c([nH]c1=O)CCCC2,inconclusive: -3.7%
23,CC(/C=N/NC(=O)Cn1nnc(N)n1)=C\c1ccc(C(C)C)cc1,inconclusive: -40.5%
24,Cc1c(Cl)cccc1NC(=S)NCCc1ccc(Cl)cc1,inconclusive: 34.9%
25,CCN(CC(=O)Nc1ccccc1C(F)(F)F)C(=O)c1oc2c(Cl)cccc2c1C,inconclusive: 6.8%

# From entry 15 as far as 16, as listed above:
row,Structure (SMILES),inhibition
15,C=CCn1c(SCC(=O)NNC(=S)Nc2ccccc2)nnc1-c1ccccc1,inconclusive: -39.2%
16,Cc1cc(C)cc(NC(=O)Nc2ccc(NC(=O)c3ccccc3O)cc2)c1,inconclusive: 4.2%
